The target in assay [1] is T1, TRPV3多肽 (TRPV3的一小段多肽, …).
T1 sequence (peptide): CSYYRPREEEAIPHP
Kind of assay: ELISA. On the technique in general: ELISA stands for enzyme-linked immunosorbent assay.

For assay [2], the target named is T1, TRPV3多肽 (TRPV3的一小段多肽, …). Kind of assay: ELISA with nickel-purified TRPV3-VHH6.
Assay [3] deals with T1, TRPV3多肽 (TRPV3的一小段多肽, …). Kind of assay: ELISA, E. coli lysate supernatant on coated TRPV3 peptide, anti-HIS detection.

These are yes or no findings as the source states them, for the method shown. Some entries that bind do so weakly or less than the wild type.

B1: TRPV3-VHH6 (VHH, not shown: small tags and cut ends)
VHH: RWQLVESGGGLVQPGGSLRLSCAASGFTLSTYRMTWVRQAPGKGLEWVSDISPGGGVTSYADTVKGRFTISRDNFKNALYLQMNSLKPEDTAVYYCAKRDLGLRDWGQGTLVTVSA
Regarding B1, the binding entry with TRPV3多肽 (TRPV3的一小段多肽, …) [1] is reported as “binds”; in the assay with TRPV3多肽 (TRPV3的一小段多肽, …) [2], “binds”; in the assay with TRPV3多肽 (TRPV3的一小段多肽, …) [3] it was “binds”.

B2: SEQ ID NO 3 (VHH)
VHH: AVQLVESGGGLAQPGGSLRLSCVSSGSVFSQNAMGWYRQVPGKRRELITHIQSGGSTYYADSVKGRFTISRDNAKNTLYLQMNSLKPEDTAVYYCAKRDLGLRDWGQGTLVTVSS
Consider B2, for which the binding result with TRPV3多肽 (TRPV3的一小段多肽, …) [1] is “binds”.

B3: SEQ ID NO 2 (VHH)
VHH: MVQLVDSGGGLVQPGGSLRLSCAASGFTSLDYYAFAWFRQAPGKEREGVSCISDSGGSTNYADSVKGRFAISRDNAKNTVYLQMNSLKPEDTAVYYCAKRDLGLRDWGQGTLVTVSS
Take B3: in the assay with TRPV3多肽 (TRPV3的一小段多肽, …) [1], the binding result is reported as “binds”.
